Library screening results

By UniProt entry, the sequences of proteins in these tests, tags left out.
UniProt E9BF75, entry or part of it: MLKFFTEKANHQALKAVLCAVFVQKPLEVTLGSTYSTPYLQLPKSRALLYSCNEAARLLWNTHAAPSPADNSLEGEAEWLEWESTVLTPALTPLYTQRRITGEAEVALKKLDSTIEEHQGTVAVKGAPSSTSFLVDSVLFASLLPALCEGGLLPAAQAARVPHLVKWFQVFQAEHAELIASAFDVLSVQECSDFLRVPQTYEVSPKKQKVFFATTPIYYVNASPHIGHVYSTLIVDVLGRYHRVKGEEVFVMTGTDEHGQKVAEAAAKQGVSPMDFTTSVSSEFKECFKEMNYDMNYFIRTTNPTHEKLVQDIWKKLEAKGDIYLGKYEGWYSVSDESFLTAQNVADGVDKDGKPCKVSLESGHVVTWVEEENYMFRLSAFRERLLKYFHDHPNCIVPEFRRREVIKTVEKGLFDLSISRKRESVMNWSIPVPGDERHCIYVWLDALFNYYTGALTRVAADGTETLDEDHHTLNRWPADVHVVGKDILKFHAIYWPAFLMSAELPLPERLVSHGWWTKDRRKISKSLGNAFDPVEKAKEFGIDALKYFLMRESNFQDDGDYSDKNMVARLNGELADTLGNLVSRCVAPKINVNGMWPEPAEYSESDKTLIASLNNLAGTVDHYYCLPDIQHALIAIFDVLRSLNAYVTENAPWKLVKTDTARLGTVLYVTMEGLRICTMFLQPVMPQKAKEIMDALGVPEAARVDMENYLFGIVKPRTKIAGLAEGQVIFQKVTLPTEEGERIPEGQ

Data taken from ChEMBL document CHEMBL3988442, “University of Dundee, Small-Polar-MMV Screening Library” (2021).

All values are in %.
The controls that fix the scale are not given in the record; negative values are as filed.
The compounds are a random part of those screened.
A dash means the value is not listed here; it may have been measured.

LdMetRS: 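Methionyl-tRNA synthetase (putative), Leishmania donovani (UniProt E9BF75). Primary screen of methionyl-tRNA synthetase; the read-out is not stated. The test concentration is not given. The values are filed as inhibition. Size under these conditions: about 68,000 compounds, about 24 of them at 50% or above in at least one test.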
Mtb heat-shock: 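Assay on Mycobacterium tuberculosis, filed only as a heat shock assay from Cornell; the read-out is not stated. The concentration is filed as 10 mM, unlikely as a test dose, so the dose is not known. The record gives no direction; compounds that gave an IC50 in retests scored well above the rest, so higher reads as stronger inhibition. Size under these conditions: about 69,000 compounds, about 930 of them at 50% or above in at least one test.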

structure	LdMetRS	Mtb heat-shock
Cc1cc(CN(C)C(=O)NCC(C)N2CCc3ccccc32)no1 (centres unmarked)	3.136	23.1
COCCN1CCOCC12CCN(c1cnccn1)CC2.O=C(O)C(F)(F)F	-	0.8146
O=C([C@@H]1CCO[C@@H]2CCN(Cc3ccco3)C[C@H]21)N1CCCCO1	5.537	-
CCN(CC1CCCO1)C(=O)CSCC(=O)Nc1ccc(C)cc1 (centres unmarked)	8.059	3.167
COc1ccsc1C(=O)N1CCCN(Cc2cscn2)CC1	25.97	30.66
O=C(c1cscn1)N1CCc2ncnc(-c3ccncc3)c2CC1	9.29	33.71
O=C(O)C(F)(F)F.O=C(O)C(F)(F)F.O=C(c1cnc2n1CCN(Cc1ccccc1)C2)N1CCCC1	-	1.56
CC1CN(C)CCN1C(=O)c1cccn1Cc1cccnc1 (centres unmarked)	13.24	1.93
Cc1cc(C)n(C2CCCN(C(=O)c3cc(C(N)=O)cs3)C2)n1 (centres unmarked)	23.5	-4.216
c1coc(CN2CCCC3(COCCN(Cc4c[nH]nn4)C3)C2)c1 (centres unmarked)	17.15	-
Cl.c1ccc(-c2ccc(C3CNCCO3)nc2)cc1 (centres unmarked)	-	-12.66
O=C(O)C(F)(F)F.O=C(c1ccccc1F)N1CCC2(CC1)CC(Oc1ccccn1)CO2 (centres unmarked)	-	32.11
Cc1cc(CN2CCN(C(C)c3nc(C4CC4)no3)CC2)no1 (centres unmarked)	6.944	1.119
COc1cccc(-c2noc(CN3CCOCC3C)n2)c1 (centres unmarked)	17.22	-11.15
CCCS(=O)(=O)c1ccc(N2CCC(Cc3ccccc3)CC2)nn1	7.914	15.34
CN(CC1COc2ccccc2O1)C(=O)c1ccc(-c2cn[nH]c2)nc1 (centres unmarked)	12.79	-6.914
O=C1CC[C@]2(CC[C@@H](NC3CCOCC3)CC2)N1Cc1ccccc1	9.444	-
Cc1cc(CNC(=O)c2ccno2)c(C)o1	18.16	3.155
Cc1cc(-c2nnc(SCC(=O)O)n2C(C)c2ccccc2)nn1C (centres unmarked)	19.47	-9.998
O=C(Nc1nc2c(s1)CCC2)NC1CCCC1	21.95	7.852
Cc1ccc(S(=O)(=O)Nc2ccc(N3CCSCC3)c(C(=O)O)c2)s1	21.3	-1.51
Cc1nn(C)c2ncc(C(=O)N3CCNC(=O)C3)cc12	12.71	4.921
CC(Cc1ccc(Cl)cc1)N(C)C(=O)NCCS(C)(=O)=O (centres unmarked)	0.5222	-30.51
CC(c1cccc(-c2nccn2CCc2cn[nH]c2)c1)N(C)C (centres unmarked)	0.2545	-39.71
O=C(O)C(F)(F)F.[H][C@]12CCC[C@@]1(COCc1ccccn1)CN(C(=O)c1ccnnc1)C2	-	-25.48
CN(C)C(=O)NC1COC2(CCN(Cc3nccn3C)CC2)C1 (centres unmarked)	15.69	2.727
CC(C)c1cc(NC(=O)CN2CCc3nn(C)c(=O)cc3C2)on1	15.36	8.312
O=C(O)C(F)(F)F.[H][C@@]12CCN(Cc3cccc(C)c3)C[C@]1([H])[C@@H](CNC(=O)N(C)C)OC2	-	-34.76
c1nc2c(c(NC3COC4(CCCC4)C3)n1)CCNCC2 (centres unmarked)	10.51	9.73
[H][C@@]12C[C@@H](OC)C[C@]1([H])CN(C(=O)c1cc(F)ccc1OC)C2	-	-3.804
CCc1noc(C)c1C(=O)N1CCCCC1Cn1cc(C)cn1 (centres unmarked)	4.571	-18.18
CCOC(=O)[C@@H]1[C@@H](c2ccccc2)CN2CCN(C(=O)N(C)C)C[C@H]12	5.205	-
CC1CN(Cc2cnn(C)c2)CCN1c1ccc2nncn2n1 (centres unmarked)	17.38	-2.629
COC(=O)C(O)C1CCN(CCc2ccncc2)CC1 (centres unmarked)	10.05	-10.79
Cc1ccccc1C(=O)N1Cc2c(Cn3ccnc3)nn(C)c2C1.O=C(O)C(F)(F)F	-	-3.355
Cn1cccc1C(=O)N1CCC2(CC1)COC(COc1ccccn1)C2.O=C(O)C(F)(F)F (centres unmarked)	-	-12.69
COCc1nc(C(=O)N2CCCC(n3nc(C)nc3C)C2)cs1 (centres unmarked)	3.988	-21.17
CC(=O)N1CC(=O)N(c2ccccc2)CC12CCN(CC1CC1)C2.O=C(O)C(F)(F)F (centres unmarked)	-	-6.45
CCCC(=O)Nc1ccc(CC(=O)N(C)CCc2cn[nH]c2)cc1	8.01	-3.561
CC(C)C(NC(=O)c1ccc(Cl)cc1Cl)C(=O)Nc1ccn(C)n1 (centres unmarked)	8.564	7.273
COCc1nn(C)c2c1CCN(Cc1cnn(C)c1)C2	7.778	-
O=C(O)C(F)(F)F.[H][C@@]12CCCO[C@]1([H])[C@@H](OCc1ccccn1)CN2C(=O)c1cnoc1C	-	-20.31
O=C(NCc1cc[nH]n1)N1CCC(Oc2ccccc2Cl)CC1	5.753	-34.48
CC(=O)c1ccc(C(=O)N2C[C@@H]3CC[C@H](C2)N(Cc2ccccc2)C3)s1	10.42	-
CC(NC1(CNC(=O)CC2CCCC2)CCOCC1)c1ccccc1 (centres unmarked)	13.04	-11.69
Cc1ccc2c(c1)CCC2NC(=O)N1CCC(C(N)=O)CC1 (centres unmarked)	21.59	0.8516
FC(F)(F)Cn1ccnc1CN1CCOC(Cn2cccn2)C1 (centres unmarked)	18.75	9.468
Cc1ccc(NC2CCN(C(=O)CCNc3ncccn3)CC2)nn1	18.89	-14.37
OCC1(O)CCCN(Cc2ccc(-c3cc[nH]n3)s2)CC1 (centres unmarked)	6.849	11.7
CC(=O)N1CC[C@H]2OCC[C@@H](C(=O)Nc3cccnc3C)[C@H]2C1	10.44	-
CCn1c(C2CCN(C(=O)c3cc(CC(C)C)on3)CC2)nn(C)c1=O	10.51	20.24
COCCC(=O)N1CCC(c2ccc3c(NC(C)C)n[nH]c3n2)C1 (centres unmarked)	14.29	-2.268
O=C(O)C(F)(F)F.O=C(O)C(F)(F)F.O=C(O)CN1CCC(F)(F)C2(CCN(c3ccccc3)C2)C1 (centres unmarked)	-	100.8
CCN1CCCC12CCCN(c1ncccn1)C2.O=C(O)C(F)(F)F (centres unmarked)	-	-13.4
Cn1cccc(NC(=O)N2CCC(CSc3ccccc3)C2)c1=O (centres unmarked)	8.101	4.758
Cc1nc(CN(C)C2CCN(CC(=O)NC3CCOCC3)C2)no1 (centres unmarked)	4.762	2.523
COc1ccc2c(c1)OCC(CNC(=O)c1cnc(NC(C)C)nc1)C2 (centres unmarked)	7.645	-5.617
COc1ccccc1CN(Cc1nc(C)no1)C1CC1	14.86	-24.73
Cl.O=C(c1cc2c(s1)CCCC2)N1CCc2nc(C3CCCN3)ncc2C1 (centres unmarked)	-	-20.16
CCSc1ccc(C(=O)NCCc2nnc(-c3ccco3)[nH]2)cn1	9.019	-14.22
CN(C)CCN1CCOCC2(CCCN(C(=O)c3ccccn3)C2)C1 (centres unmarked)	15.56	-
Cc1nn(CC(C)C)c(N(C)C)c1CNCCCNS(C)(=O)=O	-0.7117	17.73
O=C1NC(C(=O)NCc2cccnc2Oc2ccc(F)cc2F)CO1 (centres unmarked)	16.72	3.121
Cn1cc(CN2CC[C@H]3C[C@@H](c4nc(C5CC5)cs4)O[C@@H]3C2)cn1	1.613	-
O=C([C@@H]1CCO[C@@H]2CCN(Cc3ccc(F)cc3)C[C@H]21)N1CCCCO1	7.205	-
CCOc1cc(NC(=O)C2CC(=O)N(c3cccc(OC)c3)C2)ncn1 (centres unmarked)	15.11	7.392
[H][C@@]12CCCO[C@]1([H])[C@@H](OC)CN2C(=O)c1ccc(C)o1	-	-30.9
O=C1CCN(C(=O)c2csc(-c3ccc(C(F)(F)F)cc3)n2)CCN1	21.77	20.67
Cc1nc(CN2CCCC(N(C)CCCc3ccccc3)C2)no1 (centres unmarked)	14.53	-1.488
[H][C@]12C[C@@H](CN(C)C)N(C)[C@@]1([H])CCN(C(=O)Cc1cccs1)C2	-	-17.69
O=C(c1cccnc1)N1CCCC1c1nc(O)cc(-c2ccccn2)n1 (centres unmarked)	7.345	-2.479
Cc1ccccc1CN1C[C@@H](C(=O)N2CCCCO2)C[C@H]2OCC[C@H]21	19.4	-
CN(Cc1cccc(Cl)c1)Cc1nnsc1Cl	8.659	-17.98
O=C(O)C(F)(F)F.O=C(c1ccncc1F)N1CCc2onc(COc3cccnc3)c2C1	-	2.972
CC(C)c1cncnc1-c1cc(F)cc2c1OC(CN)C2 (centres unmarked)	6.452	15.05
CCc1nnc2n1CCN(C(=O)CN(C)Cc1ccccc1)C2	14.17	6.012
Cc1cccn2cc(CC(=O)N3CCCC(n4cncn4)C3)nc12 (centres unmarked)	12.88	10.65
COc1ccc(CN2C[C@@H](CN(C)C)[C@@H](CO)C2)cc1CN1CCCC1	7.343	0.5343
Cc1ccnc(C2CN(c3ncccn3)C2)n1	10.25	12.52
CS(=O)(=O)CCNC1CCCN(Cc2noc(C3CC3)n2)C1 (centres unmarked)	4.569	3.76
Cc1cccc(OC2CCN(C(=O)CNC(=O)N(C)C)CC2)c1	4.467	6.962

Once more, the final 7:

{"structure": "CC(C)c1cncnc1-c1cc(F)cc2c1OC(CN)C2", "stereo": "centres unmarked", "LdMetRS": 6.452, "Mtb heat-shock": 15.05}
{"structure": "CCc1nnc2n1CCN(C(=O)CN(C)Cc1ccccc1)C2", "LdMetRS": 14.17, "Mtb heat-shock": 6.012}
{"structure": "Cc1cccn2cc(CC(=O)N3CCCC(n4cncn4)C3)nc12", "stereo": "centres unmarked", "LdMetRS": 12.88, "Mtb heat-shock": 10.65}
{"structure": "COc1ccc(CN2C[C@@H](CN(C)C)[C@@H](CO)C2)cc1CN1CCCC1", "LdMetRS": 7.343, "Mtb heat-shock": 0.5343}
{"structure": "Cc1ccnc(C2CN(c3ncccn3)C2)n1", "LdMetRS": 10.25, "Mtb heat-shock": 12.52}
{"structure": "CS(=O)(=O)CCNC1CCCN(Cc2noc(C3CC3)n2)C1", "stereo": "centres unmarked", "LdMetRS": 4.569, "Mtb heat-shock": 3.76}
{"structure": "Cc1cccc(OC2CCN(C(=O)CNC(=O)N(C)C)CC2)c1", "LdMetRS": 4.467, "Mtb heat-shock": 6.962}